Structures can show the parent of a compound that is named as a salt. ± gives the standard deviation of the averaged measurements. This is one part of the list. The data scatter; read single values as rough.
Key:
hAMSC donor 1 [1] = test: Hoechst total cell count ratio vs vehicle control; higher = more cells (less toxicity)
hAMSC donor 2 [2] = test: as above
hAMSC donor 1 [3] = test: transgenic luciferase activity (RLU/mg protein) fold change vs vehicle control (ratio); higher = more transgene expression
hAMSC donor 1 [4] = test: transfection efficiency (EGFP+ cells / Hoechst count) fold change vs vehicle control (ratio); hAMSC are human adipose-derived mesenchymal stem cells given an EGFP-luciferase plasmid by lipofection; higher = enhanced transfection
hAMSC donor 2 [5] = test: as above
[6] = priming compound concentration 0.2 µM
[7] = priming compound concentration 1.7 µM
[8] = priming compound concentration 13 µM

| SMILES | Hoechst total cell count ratio (hAMSC donor 1 [1]; [6]) | Hoechst total cell count ratio (hAMSC donor 1 [1]; [7]) | Hoechst total cell count ratio (hAMSC donor 1 [1]; [8]) | Hoechst total cell count ratio (hAMSC donor 2 [2]; [6]) | Hoechst total cell count ratio (hAMSC donor 2 [2]; [7]) | Hoechst total cell count ratio (hAMSC donor 2 [2]; [8]) | transgenic luciferase activity (hAMSC donor 1 [3]; [8]) | transfection efficiency (hAMSC donor 1 [4]; [6]) | transfection efficiency (hAMSC donor 1 [4]; [7]) | transfection efficiency (hAMSC donor 1 [4]; [8]) | transfection efficiency (hAMSC donor 2 [5]; [6]) | transfection efficiency (hAMSC donor 2 [5]; [7]) | transfection efficiency (hAMSC donor 2 [5]; [8]) | transgenic luciferase activity (hAMSC donor 1 [3]; [7]) |
| --- | --- | --- | --- | --- | --- | --- | --- | --- | --- | --- | --- | --- | --- | --- |
| O=C(O)Cc1ccccc1Nc1c(Cl)cccc1Cl [Diclofenac sodium] | 1.17 ± 0.016 | 0.982 ± 0.13 | 0.986 ± 0.23 | 1.08 ± 0.034 | 0.85 ± 0.22 | 0.867 ± 0.29 | 1.03 ± 0.17 | 0.866 ± 0.22 | 1.44 ± 0.2 | 0.878 ± 0.29 | 1.09 ± 0.1 | 1.51 ± 0.16 | 1.15 ± 0.33 | – |
| C[C@H]1COc2c(C3(N)CC3)c(F)cc3c(=O)c(C(=O)O)cn1c23 [Pazufloxacin] | 1.23 ± 0.17 | 1.19 ± 0.089 | 1.18 ± 0.12 | 1.09 ± 0.086 | 0.957 ± 0.067 | 1.08 ± 0.32 | 0.518 ± 0.042 | 0.972 ± 0.15 | 1.2 ± 0.21 | 0.895 ± 0.096 | 1.24 ± 0.25 | 1.69 ± 0.15 | 1.09 ± 0.16 | – |
| C=C1/C(=C\C=C2/CCC[C@]3(C)[C@@H]([C@H](C)/C=C/[C@@H](O)C4CC4)CC[C@@H]23)C[C@@H](O)C[C@@H]1O [Calcipotriol] | 1.52 ± 0.17 | 1.51 ± 0.16 | 1.41 ± 0.018 | 1.48 ± 0.14 | 1.19 ± 0.08 | 1.12 ± 0.29 | 2.02 ± 0.33 | 0.959 ± 0.42 | 0.847 ± 0.17 | 0.899 ± 0.15 | 0.965 ± 0.087 | 1.27 ± 0.23 | 1.34 ± 0.35 | – |
| CCOC(=O)[C@H](CCc1ccccc1)N[C@H]1CCc2ccccc2N(CC(=O)O)C1=O [Benazepril hydrochloride] | 1.42 ± 0.21 | 1.33 ± 0.14 | 1.48 ± 0.16 | 1.02 ± 0.3 | 0.813 ± 0.15 | 0.962 ± 0.26 | 0.692 ± 0.14 | 0.901 ± 0.28 | 1.37 ± 0.7 | 0.685 ± 0.069 | 0.904 ± 0.096 | 1.76 ± 0.24 | 1.15 ± 0.14 | – |
| CC(Cc1ccccc1)(NC(=O)CN)c1ccccc1 (stereo not given) [Remacemide hydrochloride] | 1.31 ± 0.099 | 1.2 ± 0.1 | 1.38 ± 0.21 | 1.27 ± 0.11 | 1.08 ± 0.2 | 1.23 ± 0.076 | 1.02 ± 0.3 | 0.934 ± 0.45 | 0.83 ± 0.13 | 0.885 ± 0.15 | 0.858 ± 0.18 | 1.31 ± 0.35 | 1.01 ± 0.22 | – |
| COc1cc2nc(N3CCN(C(=O)C4CCCO4)CC3)nc(N)c2cc1OC (stereo not given) [Terazosin] | 1.05 ± 0.12 | 1.27 ± 0.16 | 1.26 ± 0.041 | 0.719 ± 0.14 | 0.955 ± 0.088 | 0.848 ± 0.019 | – | 1.66 ± 0.39 | 0.987 ± 0.052 | 1.21 ± 0.38 | 1.68 ± 0.46 | 1.12 ± 0.066 | 1.37 ± 0.12 | 1.2 ± 0.21 |
| CCCCCCNC(=O)n1cc(F)c(=O)[nH]c1=O [Carmofur] | 1.19 ± 0.066 | 1.37 ± 0.12 | 1.21 ± 0.11 | 1.07 ± 0.17 | 0.735 ± 0.092 | 0.758 ± 0.011 | 0.675 ± 0.16 | 1.47 ± 0.77 | 0.838 ± 0.076 | 0.735 ± 0.26 | 0.933 ± 0.18 | 1.02 ± 0.24 | 1.27 ± 0.21 | – |
| O=[N+]([O-])c1cccc2cn[nH]c12 [7-Nitroindazole] | 1.18 ± 0.096 | 1.08 ± 0.042 | 1.18 ± 0.071 | 1.25 ± 0.11 | 1.32 ± 0.09 | 1.19 ± 0.1 | 0.948 ± 0.51 | 0.766 ± 0.12 | 0.778 ± 0.098 | 0.824 ± 0.06 | 0.877 ± 0.12 | 0.815 ± 0.11 | 1 ± 0.11 | – |
| NS(=O)(=O)c1cc2c(cc1C(F)(F)F)NCNS2(=O)=O [Hydroflumethiazide] | 1.62 ± 0.089 | 1.31 ± 0.11 | 1.45 ± 0.18 | 0.755 ± 0.24 | 1.18 ± 0.064 | 1.23 ± 0.15 | – | 1.23 ± 0.1 | 1.12 ± 0.32 | 1.33 ± 0.3 | 1.49 ± 0.3 | 1.3 ± 0.057 | 1.5 ± 0.23 | 0.951 ± 0.3 |
| Clc1ccc2c(c1)CCc1cccnc1C2=C1CCNCC1 [Desloratadine] | 1.18 ± 0.1 | 1.31 ± 0.086 | 1.27 ± 0.075 | 1.11 ± 0.24 | 1.15 ± 0.084 | 1.45 ± 0.22 | 0.318 ± 0.058 | 1.21 ± 0.2 | 0.833 ± 0.32 | 0.566 ± 0.21 | 1.13 ± 0.13 | 0.815 ± 0.083 | 0.533 ± 0.1 | – |
| N[C@@H](C(=O)N[C@@H]1C(=O)N2C(C(=O)O)=C(Cl)CS[C@H]12)c1ccccc1 [Cefaclor] | 1.3 ± 0.13 | 1.2 ± 0.11 | 1.35 ± 0.062 | 1.3 ± 0.26 | 1.27 ± 0.13 | 0.916 ± 0.11 | 0.819 ± 0.21 | 0.888 ± 0.091 | 1.15 ± 0.13 | 0.764 ± 0.075 | 1.04 ± 0.059 | 1.04 ± 0.094 | 0.769 ± 0.12 | – |
| Nc1nc(=O)[nH]cc1F [Flucytosine] | 1.46 ± 0.36 | 1.23 ± 0.18 | 1.2 ± 0.12 | 0.905 ± 0.11 | 1.04 ± 0.024 | 0.946 ± 0.21 | – | 1.18 ± 0.49 | 0.967 ± 0.32 | 1.17 ± 0.18 | 1.36 ± 0.12 | 1.19 ± 0.33 | 1.9 ± 0.63 | 0.847 ± 0.38 |
| CN(CCO)CC(O)Cn1cnc2c1c(=O)n(C)c(=O)n2C (stereo not given) [Xanthinol nicotinate] | 1.39 ± 0.14 | 1.17 ± 0.043 | 1.21 ± 0.056 | 0.901 ± 0.3 | 1.44 ± 0.3 | 1.06 ± 0.13 | 0.693 ± 0.14 | 0.674 ± 0.06 | 1.01 ± 0.12 | 0.869 ± 0.34 | 1.19 ± 0.17 | 1.08 ± 0.16 | 0.9 ± 0.17 | – |
| CO[C@H]1O[C@@H]2O[C@@]3(C)CC[C@H]4[C@H](C)CC[C@@H]([C@H]1C)[C@@]24OO3 [Artemether] | 1.57 ± 0.086 | 1.4 ± 0.078 | 1.05 ± 0.13 | 1 ± 0.057 | 1.11 ± 0.09 | 1.04 ± 0.042 | 0.769 ± 0.11 | 0.948 ± 0.084 | 0.941 ± 0.057 | 1.5 ± 0.2 | 1.05 ± 0.19 | 1.04 ± 0.18 | 1.25 ± 0.29 | – |
| Nc1nc(N)nc(-c2cc(Cl)ccc2Cl)n1 [Irsogladine maleate] | 1.16 ± 0.24 | 1.09 ± 0.14 | 1.04 ± 0.24 | 1.86 ± 0.49 | 1.42 ± 0.24 | 1.27 ± 0.078 | 0.677 ± 0.15 | 1.01 ± 0.23 | 1.48 ± 0.28 | 1.3 ± 0.23 | 0.782 ± 0.22 | 1.11 ± 0.091 | 0.835 ± 0.14 | – |

A different layout for part of the listing above.
SMILES,Hoechst total cell count ratio (hAMSC donor 1 [1]; [6]),Hoechst total cell count ratio (hAMSC donor 1 [1]; [7]),Hoechst total cell count ratio (hAMSC donor 1 [1]; [8]),Hoechst total cell count ratio (hAMSC donor 2 [2]; [6]),Hoechst total cell count ratio (hAMSC donor 2 [2]; [7]),Hoechst total cell count ratio (hAMSC donor 2 [2]; [8]),transgenic luciferase activity (hAMSC donor 1 [3]; [8]),transfection efficiency (hAMSC donor 1 [4]; [6]),transfection efficiency (hAMSC donor 1 [4]; [7]),transfection efficiency (hAMSC donor 1 [4]; [8]),transfection efficiency (hAMSC donor 2 [5]; [6]),transfection efficiency (hAMSC donor 2 [5]; [7]),transfection efficiency (hAMSC donor 2 [5]; [8]),transgenic luciferase activity (hAMSC donor 1 [3]; [7])
C[C@H]1COc2c(C3(N)CC3)c(F)cc3c(=O)c(C(=O)O)cn1c23 [Pazufloxacin],1.23 ± 0.17,1.19 ± 0.089,1.18 ± 0.12,1.09 ± 0.086,0.957 ± 0.067,1.08 ± 0.32,0.518 ± 0.042,0.972 ± 0.15,1.2 ± 0.21,0.895 ± 0.096,1.24 ± 0.25,1.69 ± 0.15,1.09 ± 0.16,–
C=C1/C(=C\C=C2/CCC[C@]3(C)[C@@H]([C@H](C)/C=C/[C@@H](O)C4CC4)CC[C@@H]23)C[C@@H](O)C[C@@H]1O [Calcipotriol],1.52 ± 0.17,1.51 ± 0.16,1.41 ± 0.018,1.48 ± 0.14,1.19 ± 0.08,1.12 ± 0.29,2.02 ± 0.33,0.959 ± 0.42,0.847 ± 0.17,0.899 ± 0.15,0.965 ± 0.087,1.27 ± 0.23,1.34 ± 0.35,–
CCOC(=O)[C@H](CCc1ccccc1)N[C@H]1CCc2ccccc2N(CC(=O)O)C1=O [Benazepril hydrochloride],1.42 ± 0.21,1.33 ± 0.14,1.48 ± 0.16,1.02 ± 0.3,0.813 ± 0.15,0.962 ± 0.26,0.692 ± 0.14,0.901 ± 0.28,1.37 ± 0.7,0.685 ± 0.069,0.904 ± 0.096,1.76 ± 0.24,1.15 ± 0.14,–
CC(Cc1ccccc1)(NC(=O)CN)c1ccccc1 (stereo not given) [Remacemide hydrochloride],1.31 ± 0.099,1.2 ± 0.1,1.38 ± 0.21,1.27 ± 0.11,1.08 ± 0.2,1.23 ± 0.076,1.02 ± 0.3,0.934 ± 0.45,0.83 ± 0.13,0.885 ± 0.15,0.858 ± 0.18,1.31 ± 0.35,1.01 ± 0.22,–

Reference: the supplement of paper PMC7238544
